Laboratory results from paper PMC4682985.
The exact form of at least one protein or probe is not confirmed. Results from cells or extracts need not show a direct contact. At least one verdict rests on a figure or table, not on a statement of the authors.

By UniProt entry, the sequences of proteins in these tests, tags left out.
UniProt P03372, whole entry: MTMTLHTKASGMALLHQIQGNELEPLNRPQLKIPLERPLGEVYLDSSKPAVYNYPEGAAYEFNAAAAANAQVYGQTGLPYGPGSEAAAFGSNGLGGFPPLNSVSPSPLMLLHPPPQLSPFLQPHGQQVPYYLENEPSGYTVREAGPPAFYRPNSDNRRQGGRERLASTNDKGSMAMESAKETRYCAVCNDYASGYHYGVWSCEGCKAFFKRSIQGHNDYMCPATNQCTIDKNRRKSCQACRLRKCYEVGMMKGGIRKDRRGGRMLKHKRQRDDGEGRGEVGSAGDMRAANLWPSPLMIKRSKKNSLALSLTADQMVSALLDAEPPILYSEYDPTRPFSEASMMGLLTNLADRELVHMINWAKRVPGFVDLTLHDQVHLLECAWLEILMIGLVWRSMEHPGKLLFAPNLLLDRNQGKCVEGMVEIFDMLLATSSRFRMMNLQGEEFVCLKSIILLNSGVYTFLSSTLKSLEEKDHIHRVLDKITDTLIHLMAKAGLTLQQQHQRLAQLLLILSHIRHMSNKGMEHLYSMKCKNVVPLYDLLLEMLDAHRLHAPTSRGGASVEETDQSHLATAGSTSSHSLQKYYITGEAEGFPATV

Biological target: Estrogen receptor alpha (ERa) (UniProt P03372)
Test: EMSA supershift (nuclear extract)
Settings: anti-ERa, extract from 10 nM E2-treated cells; LightShift Chemiluminescent EMSA kit; 3 ug nuclear extract, 20 fmol biotin probe, 100-fold competitor; 6% or 4% (supershift) native gel, 0.5x TBE; binding buffer; protein in an extract; label: 3' biotin

GACGACGGAGAGCGGCGGGCCC (double strand) [AQP5 promoter ERE oligonucleotide]
binding result: binds
